Results are given in words; binding and its absence hold for the method and conditions named. Binding seen in cells or lysates may run through a third protein. Some binding calls cover weakened binding; strength is not graded here.
Assays:
Experiment in all cases: co-IP; endogenous proteins from U2OS lysates (20 µg; unsynchronized or synchronized by double thymidine block to G1, S, G2) in NP40 lysis buffer (50 mM Tris.HCl pH 8.0, 150 mM NaCl, 2 mM EDTA, 1% NP40); anti-BRCA1, anti-BLM or anti-Rad50 on protein-A beads, 4°C; western blot
[1] = target: BRCA1 tumor suppressor (human (endogenous in U2OS)) (UniProt P38398)
[2] = target: RAD50 (human (endogenous in U2OS)) (UniProt Q92878)
[3] = target: BLM helicase, mutated in Bloom's syndrome (human (endogenous in U2OS)) (UniProt P54132)

Amino acid sequences for entries named in this document (tags omitted). A change or cut given only in a name is not applied to a line headed by its entry.
UniProt P38398: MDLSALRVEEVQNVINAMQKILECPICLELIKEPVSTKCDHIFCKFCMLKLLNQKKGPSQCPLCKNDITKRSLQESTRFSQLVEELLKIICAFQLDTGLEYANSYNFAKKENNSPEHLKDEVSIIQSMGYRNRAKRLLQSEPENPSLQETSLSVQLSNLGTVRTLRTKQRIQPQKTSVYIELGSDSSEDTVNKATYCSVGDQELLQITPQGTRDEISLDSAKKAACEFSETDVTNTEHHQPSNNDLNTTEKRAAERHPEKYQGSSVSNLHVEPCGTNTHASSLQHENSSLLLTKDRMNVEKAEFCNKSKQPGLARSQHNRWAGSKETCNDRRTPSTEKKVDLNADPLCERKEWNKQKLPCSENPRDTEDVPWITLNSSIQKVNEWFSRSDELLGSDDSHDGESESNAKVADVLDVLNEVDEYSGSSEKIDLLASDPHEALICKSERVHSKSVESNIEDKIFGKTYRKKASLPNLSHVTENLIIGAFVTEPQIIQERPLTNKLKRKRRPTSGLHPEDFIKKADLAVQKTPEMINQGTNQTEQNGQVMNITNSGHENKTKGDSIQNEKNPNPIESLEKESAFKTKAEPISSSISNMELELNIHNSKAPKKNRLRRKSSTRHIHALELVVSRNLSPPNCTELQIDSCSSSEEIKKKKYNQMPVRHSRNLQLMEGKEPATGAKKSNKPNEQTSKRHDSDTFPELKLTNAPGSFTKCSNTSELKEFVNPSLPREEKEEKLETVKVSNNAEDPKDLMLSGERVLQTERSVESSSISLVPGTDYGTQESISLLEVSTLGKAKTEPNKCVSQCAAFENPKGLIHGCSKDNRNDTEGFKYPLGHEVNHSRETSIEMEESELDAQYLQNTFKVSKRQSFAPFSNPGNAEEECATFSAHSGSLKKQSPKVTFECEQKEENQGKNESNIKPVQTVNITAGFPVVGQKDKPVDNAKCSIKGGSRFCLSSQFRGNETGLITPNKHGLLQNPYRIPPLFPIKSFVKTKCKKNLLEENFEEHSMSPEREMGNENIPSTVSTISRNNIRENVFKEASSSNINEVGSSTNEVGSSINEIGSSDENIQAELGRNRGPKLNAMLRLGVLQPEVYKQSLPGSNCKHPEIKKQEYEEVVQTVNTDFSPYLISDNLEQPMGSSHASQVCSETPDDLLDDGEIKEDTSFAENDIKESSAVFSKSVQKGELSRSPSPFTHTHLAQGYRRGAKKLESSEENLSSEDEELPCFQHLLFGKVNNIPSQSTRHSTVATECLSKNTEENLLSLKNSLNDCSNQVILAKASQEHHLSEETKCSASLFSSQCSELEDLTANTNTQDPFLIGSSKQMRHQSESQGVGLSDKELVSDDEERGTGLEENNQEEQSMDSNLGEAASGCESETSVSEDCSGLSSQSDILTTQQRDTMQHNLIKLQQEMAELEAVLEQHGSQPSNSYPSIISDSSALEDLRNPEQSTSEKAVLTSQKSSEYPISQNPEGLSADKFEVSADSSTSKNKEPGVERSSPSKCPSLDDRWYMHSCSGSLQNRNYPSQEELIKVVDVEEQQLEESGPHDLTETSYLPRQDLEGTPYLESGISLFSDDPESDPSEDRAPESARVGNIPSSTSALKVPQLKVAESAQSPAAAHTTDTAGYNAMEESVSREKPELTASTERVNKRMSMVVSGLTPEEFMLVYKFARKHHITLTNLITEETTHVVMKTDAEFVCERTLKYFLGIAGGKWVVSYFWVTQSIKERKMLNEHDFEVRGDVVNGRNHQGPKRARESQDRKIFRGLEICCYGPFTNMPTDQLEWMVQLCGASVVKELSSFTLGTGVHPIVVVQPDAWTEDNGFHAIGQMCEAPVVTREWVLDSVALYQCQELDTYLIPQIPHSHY
UniProt Q92878: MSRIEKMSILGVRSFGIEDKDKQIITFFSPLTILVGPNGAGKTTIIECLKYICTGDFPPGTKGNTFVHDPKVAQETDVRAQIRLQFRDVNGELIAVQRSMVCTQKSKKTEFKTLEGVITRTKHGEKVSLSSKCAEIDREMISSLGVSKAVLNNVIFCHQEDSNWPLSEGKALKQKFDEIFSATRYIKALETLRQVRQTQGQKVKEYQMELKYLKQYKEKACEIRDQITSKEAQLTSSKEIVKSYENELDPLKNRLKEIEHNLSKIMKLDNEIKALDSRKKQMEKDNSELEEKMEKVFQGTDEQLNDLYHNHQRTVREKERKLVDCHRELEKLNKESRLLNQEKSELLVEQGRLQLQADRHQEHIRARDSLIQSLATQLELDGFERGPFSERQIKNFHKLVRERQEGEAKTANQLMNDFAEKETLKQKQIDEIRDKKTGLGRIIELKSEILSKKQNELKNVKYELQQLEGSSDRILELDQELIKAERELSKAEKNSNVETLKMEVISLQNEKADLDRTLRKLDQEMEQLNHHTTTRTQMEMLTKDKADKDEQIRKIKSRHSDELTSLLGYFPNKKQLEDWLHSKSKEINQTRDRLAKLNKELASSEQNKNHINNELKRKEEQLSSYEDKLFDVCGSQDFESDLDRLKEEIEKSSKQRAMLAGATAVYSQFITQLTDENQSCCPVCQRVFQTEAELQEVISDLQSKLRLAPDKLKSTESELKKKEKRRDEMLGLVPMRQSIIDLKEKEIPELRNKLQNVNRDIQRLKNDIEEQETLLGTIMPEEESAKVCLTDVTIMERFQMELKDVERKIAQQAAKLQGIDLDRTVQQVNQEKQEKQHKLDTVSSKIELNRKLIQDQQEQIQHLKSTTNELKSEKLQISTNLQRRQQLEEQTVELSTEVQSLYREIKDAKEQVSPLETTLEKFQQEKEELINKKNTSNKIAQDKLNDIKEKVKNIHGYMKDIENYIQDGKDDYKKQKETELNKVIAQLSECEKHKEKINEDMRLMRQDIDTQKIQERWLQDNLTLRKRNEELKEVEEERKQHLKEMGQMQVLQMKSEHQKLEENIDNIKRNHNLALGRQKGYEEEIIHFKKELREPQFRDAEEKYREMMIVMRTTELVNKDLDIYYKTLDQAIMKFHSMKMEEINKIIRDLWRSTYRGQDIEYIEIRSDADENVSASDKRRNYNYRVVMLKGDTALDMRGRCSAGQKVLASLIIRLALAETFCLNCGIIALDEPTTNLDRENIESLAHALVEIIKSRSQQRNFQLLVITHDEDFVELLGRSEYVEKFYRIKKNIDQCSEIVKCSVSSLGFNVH
UniProt P54132: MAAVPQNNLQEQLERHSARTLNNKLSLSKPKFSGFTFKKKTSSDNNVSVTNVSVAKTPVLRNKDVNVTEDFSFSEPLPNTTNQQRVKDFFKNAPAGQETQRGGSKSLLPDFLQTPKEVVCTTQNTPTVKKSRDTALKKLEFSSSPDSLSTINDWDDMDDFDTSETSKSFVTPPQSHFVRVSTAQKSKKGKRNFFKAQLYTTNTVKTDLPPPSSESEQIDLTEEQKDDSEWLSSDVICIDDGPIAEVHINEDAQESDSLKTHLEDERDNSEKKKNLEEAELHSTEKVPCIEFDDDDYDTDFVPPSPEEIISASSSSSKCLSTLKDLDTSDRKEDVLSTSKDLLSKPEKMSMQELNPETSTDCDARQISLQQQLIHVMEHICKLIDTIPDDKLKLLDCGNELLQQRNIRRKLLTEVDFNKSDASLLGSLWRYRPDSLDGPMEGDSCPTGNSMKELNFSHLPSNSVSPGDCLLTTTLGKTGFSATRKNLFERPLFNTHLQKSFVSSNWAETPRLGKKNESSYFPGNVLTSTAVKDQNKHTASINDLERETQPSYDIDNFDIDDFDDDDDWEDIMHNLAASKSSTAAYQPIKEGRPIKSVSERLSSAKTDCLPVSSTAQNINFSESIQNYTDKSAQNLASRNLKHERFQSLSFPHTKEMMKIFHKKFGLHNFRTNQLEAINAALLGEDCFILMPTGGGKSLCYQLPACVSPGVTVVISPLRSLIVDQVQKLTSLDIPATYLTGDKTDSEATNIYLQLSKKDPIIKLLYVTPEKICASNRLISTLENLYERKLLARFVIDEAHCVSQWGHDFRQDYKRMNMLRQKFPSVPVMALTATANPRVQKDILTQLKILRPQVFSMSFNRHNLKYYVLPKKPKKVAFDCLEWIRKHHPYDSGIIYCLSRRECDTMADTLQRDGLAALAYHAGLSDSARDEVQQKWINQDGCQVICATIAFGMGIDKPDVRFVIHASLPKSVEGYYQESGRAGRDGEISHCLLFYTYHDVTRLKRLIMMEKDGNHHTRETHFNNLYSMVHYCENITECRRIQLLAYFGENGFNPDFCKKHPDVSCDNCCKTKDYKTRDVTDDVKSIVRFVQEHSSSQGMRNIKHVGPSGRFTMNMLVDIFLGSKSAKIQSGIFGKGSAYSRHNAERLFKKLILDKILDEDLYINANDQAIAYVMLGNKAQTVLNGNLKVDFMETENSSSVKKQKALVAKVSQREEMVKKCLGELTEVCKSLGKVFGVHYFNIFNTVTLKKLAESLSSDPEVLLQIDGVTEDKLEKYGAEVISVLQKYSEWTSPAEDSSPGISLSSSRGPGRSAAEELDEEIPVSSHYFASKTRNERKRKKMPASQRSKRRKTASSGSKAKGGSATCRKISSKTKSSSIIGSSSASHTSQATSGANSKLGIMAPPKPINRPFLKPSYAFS

binding [1]	binding [2]	binding [3]	Substance
binds	binds	–	BLM helicase, mutated in Bloom's syndrome (from UniProt P54132 1-1417)
–	–	binds	RAD50 (from UniProt Q92878 1-1312)

Source: publication PMC4118958
